Among the data in paper PMC10298753 are binding values, retold here.

For experiment [1], the target named is T1, Flag-IFT81 (UniProt Q8WYA0).
T1 sequence: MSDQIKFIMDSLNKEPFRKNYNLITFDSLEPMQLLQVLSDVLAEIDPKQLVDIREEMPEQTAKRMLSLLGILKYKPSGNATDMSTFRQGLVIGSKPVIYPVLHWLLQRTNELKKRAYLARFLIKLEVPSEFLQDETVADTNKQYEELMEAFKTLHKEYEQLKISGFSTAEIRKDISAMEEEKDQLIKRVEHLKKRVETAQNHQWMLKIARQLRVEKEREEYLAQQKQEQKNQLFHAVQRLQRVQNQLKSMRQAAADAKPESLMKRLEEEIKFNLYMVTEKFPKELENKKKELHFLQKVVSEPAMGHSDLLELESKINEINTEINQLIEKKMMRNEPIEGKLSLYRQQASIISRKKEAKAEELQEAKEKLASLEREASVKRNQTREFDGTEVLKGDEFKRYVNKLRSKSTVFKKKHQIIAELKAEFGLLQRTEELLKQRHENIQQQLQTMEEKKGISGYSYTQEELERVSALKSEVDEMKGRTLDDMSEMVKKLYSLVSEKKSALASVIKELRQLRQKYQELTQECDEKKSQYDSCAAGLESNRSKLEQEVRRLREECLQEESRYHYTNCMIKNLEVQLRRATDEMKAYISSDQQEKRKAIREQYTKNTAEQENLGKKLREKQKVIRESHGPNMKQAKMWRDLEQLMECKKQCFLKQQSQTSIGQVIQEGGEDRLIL
The experiment is described as follows: co-IP; 3xHA-IFT74 or 3xHA-IFT74 lacking exon 2 co-expressed with Flag-IFT81; precipitated with anti-Flag antibody, blot stained with anti-HA antibody.

For experiment [2], the target named is T2, 3xHA-tagged human IFT52 (human) (UniProt Q9Y366).
T2 sequence: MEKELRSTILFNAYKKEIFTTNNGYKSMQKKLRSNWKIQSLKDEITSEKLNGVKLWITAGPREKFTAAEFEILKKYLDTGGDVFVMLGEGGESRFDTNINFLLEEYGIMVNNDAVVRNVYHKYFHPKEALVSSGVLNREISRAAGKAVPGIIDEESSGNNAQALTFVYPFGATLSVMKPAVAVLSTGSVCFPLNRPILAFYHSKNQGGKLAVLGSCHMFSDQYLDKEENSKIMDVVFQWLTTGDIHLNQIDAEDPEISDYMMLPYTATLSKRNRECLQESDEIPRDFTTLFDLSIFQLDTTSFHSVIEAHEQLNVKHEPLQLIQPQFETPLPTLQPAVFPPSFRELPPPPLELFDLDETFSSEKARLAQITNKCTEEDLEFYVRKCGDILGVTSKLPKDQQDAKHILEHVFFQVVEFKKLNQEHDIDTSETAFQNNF
The experiment is described as follows: co-IP; 3xHA-tagged human CBY, IFT46 or IFT52 co-expressed in HEK293T cells with Flag-tagged IFT74 or IFT74Δexon2; extracts precipitated with HA beads, eluates probed for Flag.

The target in experiment [3] is T3, 3xHA-tagged human IFT46 (human) (UniProt Q9NQC8).
T3 sequence: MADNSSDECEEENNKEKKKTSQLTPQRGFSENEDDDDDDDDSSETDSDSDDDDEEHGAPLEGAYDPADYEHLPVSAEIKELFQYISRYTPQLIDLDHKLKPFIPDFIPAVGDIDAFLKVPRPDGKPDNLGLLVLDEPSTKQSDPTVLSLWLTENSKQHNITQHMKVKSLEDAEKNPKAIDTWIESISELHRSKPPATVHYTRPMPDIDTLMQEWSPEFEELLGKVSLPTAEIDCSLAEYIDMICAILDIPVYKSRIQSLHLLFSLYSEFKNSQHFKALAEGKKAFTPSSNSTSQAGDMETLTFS
Described as above.

In experiment [4] the target is T4, 3xHA-tagged human IFT46 (human), Q9NQC8.
T4 chain: T3 sequence
Described as above. The conditions noted are these: remark: other sources report otherwise.

These are yes or no findings as the source states them, for the method shown. Binding seen in cells or lysates may run through a third protein. Some results given as binding are weak or reduced against the parent protein; the word gives no strength. Sequences can lack the tags named with a protein.

B1: 3xHA-IFT74 (wildtype) (protein, UniProt Q96LB3-1 1-600)
chain: MASNHKSSAARPVSRGGVGLTGRPPSGIRPLSGNIRVATAMPPGTARPGSRGCPIGTGGVLSSQIKVAHRPVTQQGLTGMKTGTKGPQRQILDKSYYLGLLRSKISELTTEVNKLQKGIEMYNQENSVYLSYEKRAETLAVEIKELQGQLADYNMLVDKLNTNTEMEEVMNDYNMLKAQNDRETQSLDVIFTERQAKEKQIRSVEEEIEQEKQATDDIIKNMSFENQVKYLEMKTTNEKLLQELDTLQQQLDSQNMKKESLEAEIAHSQVKQEAVLLHEKLYELESHRDQMIAEDKSIGSPMEEREKLLKQIKDDNQEIASMERQLTDTKEKINQFIEEIRQLDMDLEEHQGEMNQKYKELKKREEHMDTFIETFEETKNQELKRKAQIEANIVALLEHCSRNINRIEQISSITNQELKMMQDDLNFKSTEVQKSQSTAQNLTSDIQRLQLDLQKMELLESKMTEEQHSLKSKIKQMTTDLEIYNDLPALKSSGEEKIKKLHQERMILSTHRNAFKKIMEKQNIEYEALKTQLQENETHSQLTNLERKWQHLEQNNFAMKEFIATKSQESDYQPIKKNVTKQIAEYNKTIVDALHSTSGN
For the molecule B1, in experiment [1], the binding entry is “binds”.

B2: Flag-tagged IFT74 (protein, UniProt Q96LB3-1 1-600)
chain: B1 chain
For the molecule B2, the binding entry in experiment [2] and in experiment [3] was “binds” each time.

B3: 3xHA-IFT74 lacking exon 2 (domain or fragment, UniProt Q96LB3-1 41-600)
chain: MPPGTARPGSRGCPIGTGGVLSSQIKVAHRPVTQQGLTGMKTGTKGPQRQILDKSYYLGLLRSKISELTTEVNKLQKGIEMYNQENSVYLSYEKRAETLAVEIKELQGQLADYNMLVDKLNTNTEMEEVMNDYNMLKAQNDRETQSLDVIFTERQAKEKQIRSVEEEIEQEKQATDDIIKNMSFENQVKYLEMKTTNEKLLQELDTLQQQLDSQNMKKESLEAEIAHSQVKQEAVLLHEKLYELESHRDQMIAEDKSIGSPMEEREKLLKQIKDDNQEIASMERQLTDTKEKINQFIEEIRQLDMDLEEHQGEMNQKYKELKKREEHMDTFIETFEETKNQELKRKAQIEANIVALLEHCSRNINRIEQISSITNQELKMMQDDLNFKSTEVQKSQSTAQNLTSDIQRLQLDLQKMELLESKMTEEQHSLKSKIKQMTTDLEIYNDLPALKSSGEEKIKKLHQERMILSTHRNAFKKIMEKQNIEYEALKTQLQENETHSQLTNLERKWQHLEQNNFAMKEFIATKSQESDYQPIKKNVTKQIAEYNKTIVDALHSTSGN
In the case of B3, in experiment [1], the binding result is given as “binds”.

B4: Flag-tagged IFT74Δexon2 (domain or fragment, UniProt Q96LB3-1 41-600)
chain: B3 chain
As for B4, the binding entry in experiment [2] is “binds”.

B5: Flag-tagged IFT74Δexon2, Q96LB3-1 41-600 (domain or fragment)
chain: B3 chain
As for B5, the binding entry in experiment [4] was “binds”.
